Laboratory results reported in paper PMC12322227.
Results are given in words; binding and its absence hold for the method and conditions named. In cells and extracts the contact can be indirect. Some binding calls cover weakened binding; strength is not graded here.

Amino acid sequences for entries named in this document (tags omitted).
UniProt Q86WV6: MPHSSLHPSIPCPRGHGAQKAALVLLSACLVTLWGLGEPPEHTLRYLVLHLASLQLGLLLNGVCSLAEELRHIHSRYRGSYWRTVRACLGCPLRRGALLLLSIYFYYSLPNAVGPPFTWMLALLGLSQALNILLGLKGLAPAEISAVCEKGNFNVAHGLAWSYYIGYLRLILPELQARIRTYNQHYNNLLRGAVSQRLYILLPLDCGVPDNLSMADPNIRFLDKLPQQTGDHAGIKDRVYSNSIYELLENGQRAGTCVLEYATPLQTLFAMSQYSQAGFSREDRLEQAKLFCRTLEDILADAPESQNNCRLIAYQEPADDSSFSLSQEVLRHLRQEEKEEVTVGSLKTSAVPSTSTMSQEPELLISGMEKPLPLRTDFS
UniProt P19474: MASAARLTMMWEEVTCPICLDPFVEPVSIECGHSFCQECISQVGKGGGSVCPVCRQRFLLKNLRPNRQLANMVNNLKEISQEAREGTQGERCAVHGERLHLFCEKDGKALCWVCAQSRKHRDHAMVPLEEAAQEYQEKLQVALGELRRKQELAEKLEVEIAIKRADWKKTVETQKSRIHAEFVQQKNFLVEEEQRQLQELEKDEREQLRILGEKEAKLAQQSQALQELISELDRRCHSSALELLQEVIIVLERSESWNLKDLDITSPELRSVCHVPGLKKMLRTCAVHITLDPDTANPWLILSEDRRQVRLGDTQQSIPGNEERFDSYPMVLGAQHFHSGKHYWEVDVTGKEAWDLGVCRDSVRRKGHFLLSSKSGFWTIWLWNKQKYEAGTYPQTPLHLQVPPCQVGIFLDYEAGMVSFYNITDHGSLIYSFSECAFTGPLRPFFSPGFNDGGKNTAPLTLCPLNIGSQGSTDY

Tests used:
[1] = biological target: Stimulator of interferon genes (STING), human, endogenous (human (endogenous in PBMCs and HEK293)) (UniProt Q86WV6); test: co-IP; HEK293 lysate; anti-STING antibody or normal rabbit IgG on Dynabeads Protein G, 4 °C, 2 h; blot with anti-TRIM21 and anti-STING
[2] = biological target: Stimulator of interferon genes (STING), human, endogenous (human (endogenous in PBMCs and HEK293)) (UniProt Q86WV6); test: proximity ligation; endogenous proteins in human PBMCs and mouse splenocytes; antibodies against TRIM21 and STING; NaveniFlex Cell MR Atto647N; confocal microscopy

binding [1]: binds | binding [2]: binds
Substance: Tripartite motif-containing 21 (TRIM21), human, endogenous (from UniProt P19474 1-475)
